Data on 1 sequence can be found in publication PMC4941734, “Structural and dynamics studies of a truncated variant of CI repressor from bacteriophage TP901-1” (Scientific Reports, 2016).

The exact form of at least one protein or probe is not confirmed. Protein sequences can lack the tags named with them.

This data set addresses T1, CI∆58 (CI repressor, C-terminally truncated) (bacteriophage TP901-1 (host Lactococcus lactis)) (UniProt O48503).
T1 sequence (looked up): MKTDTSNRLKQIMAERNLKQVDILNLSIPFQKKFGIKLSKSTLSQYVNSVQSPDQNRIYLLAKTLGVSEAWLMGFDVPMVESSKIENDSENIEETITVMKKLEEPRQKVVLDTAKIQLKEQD
Put plainly: NMR (1H-15N HSQC titration). The settings on record: 300 mM NaCl, 298 K, only NTD resonances shift, NMR: 300 mM NaCl, recombinant protein, residues 1-122, protein details: C-terminal RSHHHHHH

For “GTTCATGAAACGTGAACT (double strand) [OL operator 18 bp]”, the binding result is “binds”.
